These are yes or no findings as the source states them, for the method shown. Binding calls can cover weak binding; strength is not graded here. For some of these results: Binding seen in cells or lysates may run through a third protein.
B1: EvpB (in the E. piscicida outer membrane protein fraction) (protein, UniProt A0AAU8P503 1-495)
chain: MSEQNLPESSAAESAALEGGLLDSIIAETRMARSDLEKARARDLLGEWVSEVLSGTVTVSGDVLASIEARIAQIDALLSAQLSAIMHEPAFQKLEGSWRGLHYLVHQSETGTGLKIRMLNVSRADLIRDFKSAAEFDQSALFKKVYEEEYGTFGGAPFAAMIGDYEFSNHPEDLFLLEEISHVAAAAHAPFLSAASAGMFGLDSLTELSIPRDLAKGFDTVEYAKWKSLRQSEDARYIALALPHVLGRLPYGATTVPVESFNFEENVSGKEHGKYLWLNAAYALGTRLTQAYAKYGWCAAIRGAEGGGLVEGLPAHTFTTDDGEVELKCPTEVAITDRREKELAELGFIALTHCKGTDYAAFFSTQSVQKPKEYDSDSANANARISCQLQYIMATSRFAHYLKSMVRDKIGSFMSRSECEYFLNQWISNYVVGSDDAGQDIKAKYPLREARIDVSDIPGKPGFYKAVAYLKPHFQLEGLTASLRLVADLPPPAQG

Target: T1, EvpB (recombinant) (E. piscicida EIB202)
T1 sequence: B1 chain
Test: far-Western, overlay or dot blot; purified recombinant bacterial outer membrane proteins transferred to NC membranes as bait; purified recombinant liver proteins as prey, one at a time; detected with mouse antisera against the liver proteins, HRP-conjugated secondary antibody, DAB; both purified

Which binding does the source give for annexin max1 (recombinant) here?
Its binding is “binds”.

How did the binding turn out when cathepsin K (recombinant) (enzyme) was run?
Its binding is “binds”.

How did the binding turn out when “flavin-containing monooxygenase (recombinant) (enzyme)” was run?
The binding was “binds”.

How did the binding turn out when hemoglobin beta chain (recombinant) was run?
The binding was “binds”.

“hyperosmotic glycine-rich protein (recombinant)” was tested. Which binding did it give?
Its binding is “binds”.

Which binding does the source give for “immunoglobulin mu heavy chain (recombinant)” here?
The binding was “binds”.

Target: cathepsin K (recombinant) (not stated (Epinephelus coioides or Danio cDNA cloned))
Test: co-IP; recombinant cathepsin K incubated with E. piscicida outer membrane proteins 2 h at room temperature; mouse antiserum against cathepsin K (pre-immune antiserum as control), nProtein A Sepharose 4 Fast Flow 12 h at 4 °C; eluted with glycine-HCl pH 2.4; blots with anti-EvpB, anti-ETAE_3048, anti-ETAE_0245; only the target purified

With B1 as the molecule, how does the binding read?
The binding was “binds”.

From paper PMC5206647
